Laboratory results as given in PubChem BioAssay AID1347076 (National Center for Advancing Translational Sciences (NCATS), 2019).
Out of some 400,000 compounds screened, about 13,000 (3.2%) were called active. Inconclusive means that the source gave no clear call. Such entries were picked first, then a sample of the others. Calls come from the whole dose curve; as a rule, active = well fitted cell-killing curve with a large enough effect; inconclusive = small, poorly fitted or top-dose-only effect, or effect the other way; inactive = flat fitted curve, though single readings scatter. Potencies of inconclusive entries are doubtful fits and often do not repeat.

Experiment: qHTS assay for MDR1-selective chemotherapeutics: Primary screen using the drug-selected MDR subline cells KB-V1; note: nearly all actives have a fitted effect of over 60% in size
Conditions: KB-V1 MDR cells viability, CellTiter-Glo, 72 h; activity change, negative = cytotoxicity: at 46.1 µM (top of the series)
Procedure, shortened: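 KB-V1 cells (P-gp-expressing MDR subline of KB-3-1) in phenol-red-free DMEM with 10% FBS were exposed to library compounds over a concentration series for 72 h at 37 degrees C. Viability read by CellTiter-Glo luminescence; concentration-effect curves fitted after normalization.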
% is set by controls: 0 for no effect and ±100 for the full control effect; potency is the fitted concentration of half-maximal effect.

SMILES | Potency | activity change, negative = cytotoxicity
CN(Cc1ccccc1)C(=O)CCn1c(=O)c2cccn2c2cccnc21 | inconclusive: 5.17 µM [cytotoxic, full curve, poor fit] | –
CS(=O)(=O)c1ccc(Nc2nc(C(N)COCc3ccccc3)cs2)cc1 (stereo not given) | – | inactive: -18.4%
COC(=O)Nc1ccc(S(=O)(=O)N2CCCC(C(=O)NC3CCCCC3)C2)cc1 (stereo not given) | inconclusive: 29.1 µM [cytotoxic, single point] | –
Cc1cnc(NC(=O)c2cccc(S(=O)(=O)N3CC(C)OC(C)C3)c2)s1 (stereo not given) | active: 16.4 µM | –
CC12CN3CC(C)(CN(C1)C3c1ccc3c(c1)OCO3)C2=O (stereo not given) | – | inactive: 1.24%
Cc1cc(C(=O)NC(C)C2CCCO2)no1 (stereo not given) | inconclusive: 29.1 µM [rising, single point] | –
Cc1ccc2c(=O)n3c(nc2c1)C(C)NC(=O)c1cccnc1-3 (stereo not given) | – | inconclusive: 0%
Cc1ccc(CNC(=O)c2c(O)nc3c(C)cccn3c2=O)cc1 | inconclusive: 32.6 µM [cytotoxic, single point] | –
CCOC(=O)C1=C(COC(=O)CSc2ccc(C)cc2)NC(=O)NC1C (stereo not given) | inconclusive: 29.1 µM [rising, single point] | –
COC(=O)c1c(C)n(-c2ccc(C)cc2)c2ccc(O)cc12 | inconclusive: 15.8 µM [cytotoxic, partial curve] | –
CCOc1cc2c(Cl)ncnc2c(OCC)c1OCC | inconclusive: 16.4 µM [cytotoxic, partial curve] | –
CN(C)c1ccc(CNS(=O)(=O)c2ccc3[nH]c4c(c3c2)CCCCC4)cc1 | active: 16.4 µM | –
CCCN=C1N(CC)C[C@@H]2[C@@H]3C(=O)N(C)C(=O)[C@@H]3[C@](CC)(C(=O)OC)N12 | – | inactive: 12.7%
COc1ccc(Nc2nnc(SCC(=O)c3cc(C)n(CC4CCCO4)c3C)s2)cc1 (stereo not given) | inconclusive: 18.4 µM [cytotoxic, partial curve] | –
CCC(C(=O)c1ccccc1)N(C(=O)c1ccccc1Cl)N1C(=O)C2C3C=CC(C3)C2C1=O (stereo not given) | inconclusive: 3.26 µM [cytotoxic, partial curve] | –
COC(=O)C1CCCCN1C(=O)c1cc(COc2cccc3cccnc23)on1 (stereo not given) | inconclusive: 9.2 µM [cytotoxic, partial curve] | –
Cc1ccccc1-c1noc(-c2cccnc2N(C)Cc2ccc(Cl)cc2)n1 | inconclusive: 23.1 µM [cytotoxic, single point] | –
Cc1cc(C)cc(Oc2ccc(NC(=O)C3CC=CCC3C(=O)O)cc2)c1 (stereo not given) | – | inactive: -15.3%
COc1ccc(C(=O)/C=C/c2ccc(OC)c(COc3ccc(F)cc3)c2)cc1 | inconclusive: 18.4 µM [cytotoxic, partial curve] | –
Clc1ccccc1C(c1ccccc1)(c1ccccc1)n1ccnc1 | active: 14.6 µM | –
COc1ccc(NCC(=O)Nc2cccc(S(=O)(=O)N3CCCC3)c2)cc1Cl | – | inactive: -6.05%
COc1ccc(-c2oc3c(c2-c2cnc(OC)nc2)C(O)CC3)cc1 (stereo not given) | inconclusive: 18.4 µM [cytotoxic, partial curve, poor fit] | –
CCOC(=O)c1cccc(NC(=O)CCC(=O)N2CC(C)Oc3ccc(C)cc32)c1 (stereo not given) | – | inactive: -22.5%
COc1cc(CC(=O)Nc2cccc(S(=O)(=O)N(C)c3ccccc3)c2)cc(OC)c1OC | – | inactive: 1.62%

SMILES | Potency | activity change, negative = cytotoxicity
CC(NC(=O)c1ccc(Br)s1)c1ccncc1 (stereo not given) | – | inactive: -43.6%
O=[N+]([O-])c1ccc(CSc2nnc3ccccn23)cc1 | inconclusive: 29.1 µM [rising, single point] | –
Fc1ccc(Cc2cn3cc(-c4ccccc4)nc3s2)cc1 | inconclusive: 29.1 µM [rising, single point] | –
CCSc1nsc(NC(=O)Nc2ccccc2F)n1 | active: 16.4 µM | –
COc1ccc(CCNC(=O)CSc2nnnn2-c2cccc(C(C)=O)c2)cc1OC | – | inactive: 9.58%
Cn1c(=O)c(=O)n(C)c2cc(S(=O)(=O)CCC(=O)Nc3ccc(C(F)(F)F)cc3)ccc21 | inconclusive: 32.6 µM [rising, single point] | –
COc1ccc(/C=N/OCC(=O)Nn2c(C)nc3ccccc3c2=O)cc1 | inconclusive: 18.4 µM [cytotoxic, single point] | –
O=C(CCSc1ccc(Cl)cc1)N1CCN(S(=O)(=O)c2ccccc2)CC1 | active: 20.6 µM | –
NNC(=O)CN1C(c2ccccc2Br)=Nc2ccc(Br)cc2C1c1ccccc1 (stereo not given) | inconclusive: 29.1 µM [cytotoxic, single point] | –
C#CCNC(=O)C1=C[C@@H](c2ccc(C#C)cc2)[C@H](CCCO)[C@@H](OCC)O1 | – | inactive: -19%
COc1cc(/C=C(\C#N)C(N)=O)ccc1OCc1c(C)no[n+]1[O-] | inconclusive: 1.84 µM [rising, full curve] | –
O=C(NCCCN1CCOCC1)c1ccc2c(c1)N(Cc1ccccc1F)C(=O)c1ccccc1S2=O (stereo not given) | inconclusive: 29.1 µM [rising, single point] | –
CC(C(=O)Nc1ccccc1-c1ccccc1)N1CCN(C(=O)c2ccccc2)CC1 (stereo not given) | – | inactive: 2.81%
O=C(NC1CCN(c2ncccn2)CC1)c1c(F)cccc1F | inconclusive: 29.1 µM [rising, single point] | –
CN1CCCN(Cc2nc(-c3ccc(Cl)cc3)no2)CC1 | inconclusive: 0.0046 µM [cytotoxic, full curve, poor fit] | –
Oc1ccc(C23CC4CC(CC(C4)C2)C3)cc1O | – | inactive: 9.32%
COc1ccc(-n2ncc3c2CC(C)(C)CC3NC(=O)c2ccoc2C)cc1 (stereo not given) | inconclusive: 1.46 µM [cytotoxic, full curve, poor fit] | –
CCOC(=O)c1[nH]c(C)c(/C(O)=C2\C(=O)C(=O)N(CCN(C)C)C2c2ccncc2)c1C (stereo not given) | inconclusive: 2.31 µM [cytotoxic, partial curve, poor fit] | –
Cn1ccc(/C=N/N=C2/NC(=O)CS2)n1 | inconclusive: 18.4 µM [cytotoxic, single point] | –
O=C(Cc1ccccc1[N+](=O)[O-])NNC(=O)c1cccs1 | – | inactive: 11.9%
Cc1cc(C)c(NC(=O)CCN2C(=O)c3ccccc3S2(=O)=O)c(C)c1 | – | inactive: 6.85%
CCn1c(CSCc2ccc(Cl)cc2)nnc1SCC(=O)Nc1cccc(C(=O)O)c1 | inconclusive: 29.1 µM [rising, single point] | –
COC(=O)CCNC(=O)CCc1ccc(S(=O)(=O)N2CCCCCC2)cc1 | – | inconclusive: -9.05%
Cc1ccsc1C1Nc2ccccc2C(=O)N1O (stereo not given) | inconclusive: 16.4 µM [cytotoxic, single point] | –

Already shown: 16 of the compounds above.
SMILES | Potency | activity change, negative = cytotoxicity
NNC(=O)CN1C(c2ccccc2Br)=Nc2ccc(Br)cc2C1c1ccccc1 (stereo not given) | inconclusive: 29.1 µM [cytotoxic, single point] | –
C#CCNC(=O)C1=C[C@@H](c2ccc(C#C)cc2)[C@H](CCCO)[C@@H](OCC)O1 | – | inactive: -19%
COc1cc(/C=C(\C#N)C(N)=O)ccc1OCc1c(C)no[n+]1[O-] | inconclusive: 1.84 µM [rising, full curve] | –
O=C(NCCCN1CCOCC1)c1ccc2c(c1)N(Cc1ccccc1F)C(=O)c1ccccc1S2=O (stereo not given) | inconclusive: 29.1 µM [rising, single point] | –
CC(C(=O)Nc1ccccc1-c1ccccc1)N1CCN(C(=O)c2ccccc2)CC1 (stereo not given) | – | inactive: 2.81%
O=C(NC1CCN(c2ncccn2)CC1)c1c(F)cccc1F | inconclusive: 29.1 µM [rising, single point] | –
CN1CCCN(Cc2nc(-c3ccc(Cl)cc3)no2)CC1 | inconclusive: 0.0046 µM [cytotoxic, full curve, poor fit] | –
Oc1ccc(C23CC4CC(CC(C4)C2)C3)cc1O | – | inactive: 9.32%
COc1ccc(-n2ncc3c2CC(C)(C)CC3NC(=O)c2ccoc2C)cc1 (stereo not given) | inconclusive: 1.46 µM [cytotoxic, full curve, poor fit] | –
CCOC(=O)c1[nH]c(C)c(/C(O)=C2\C(=O)C(=O)N(CCN(C)C)C2c2ccncc2)c1C (stereo not given) | inconclusive: 2.31 µM [cytotoxic, partial curve, poor fit] | –
Cn1ccc(/C=N/N=C2/NC(=O)CS2)n1 | inconclusive: 18.4 µM [cytotoxic, single point] | –
O=C(Cc1ccccc1[N+](=O)[O-])NNC(=O)c1cccs1 | – | inactive: 11.9%
Cc1cc(C)c(NC(=O)CCN2C(=O)c3ccccc3S2(=O)=O)c(C)c1 | – | inactive: 6.85%
CCn1c(CSCc2ccc(Cl)cc2)nnc1SCC(=O)Nc1cccc(C(=O)O)c1 | inconclusive: 29.1 µM [rising, single point] | –
COC(=O)CCNC(=O)CCc1ccc(S(=O)(=O)N2CCCCCC2)cc1 | – | inconclusive: -9.05%
Cc1ccsc1C1Nc2ccccc2C(=O)N1O (stereo not given) | inconclusive: 16.4 µM [cytotoxic, single point] | –

Further structures follow.

SMILES | Potency | activity change, negative = cytotoxicity
COCCN(C(=O)CCc1ccc(OC)cc1)c1nnc(-c2ccncc2)s1 | inconclusive: 8.2 µM [cytotoxic, partial curve] | –
CCCNC(=O)c1ccccc1NC(=O)c1ccccc1N(C)S(=O)(=O)c1ccc(C)cc1 | inconclusive: 29.1 µM [cytotoxic, single point] | –
COc1ccc(S(=O)(=O)Nc2cccc(SC)c2)cc1OC | active: 7.31 µM | –
C=Cc1ccc(CN2C(=O)c3ccccc3Sc3ccc(C(=O)OCc4ccco4)cc32)cc1 | inconclusive: 14.6 µM [cytotoxic, partial curve] | –
O=C(Nc1ccccc1)N(Cc1ccc(F)cc1)c1ccccn1 | inconclusive: 6.51 µM [cytotoxic, full curve, poor fit] | –
CCSc1nnc(-c2cnn(-c3ccccc3)c2-n2cccc2)n1C | – | inactive: -15.9%
CCOC(=O)C1=CCN(S(=O)(=O)c2ccc(C)cc2)C1c1ccc(Cl)c(Cl)c1 (stereo not given) | – | inactive: 4.94%
COc1cccc(CN2CCNC(=O)C2CC(=O)NCc2cc(C(C)C)no2)c1 (stereo not given) | – | inactive: -8.47%
CCOc1cc2c(cc1OCC)C(c1ccc(C(=O)O)cc1)NCC2 (stereo not given) | inconclusive: 16.4 µM [rising, single point] | –
O=S1(=O)CCOC[C@H](c2ccccc2)N1Cc1ccccc1F | inconclusive: 18.4 µM [cytotoxic, single point] | –
C=CCNc1nc(Nc2ccc(Cl)cc2)nc(OC)n1 | inconclusive: 20.6 µM [cytotoxic, single point] | –
Nc1sc(Cc2ccccc2)cc1C(=O)NC1CCCCC1 | inconclusive: 20.6 µM [cytotoxic, partial curve, poor fit] | –
CCOc1ccccc1NC(=O)c1ccc(S(=O)(=O)N(C)C)cc1 | inconclusive: 35.5 µM [cytotoxic, single point] | –
Cc1cc(NC(=O)c2ccccc2F)n(-c2nc3ccccc3[nH]2)n1 | active: 14.6 µM | –
CSc1cccc(NC(=O)C2CC(=O)N(c3ccc4c(c3)OCCO4)C2)c1 (stereo not given) | inconclusive: 3.26 µM [rising, partial curve, poor fit] | –
O=C(Nc1c(C(=O)N2CCN(c3ccccn3)CC2)oc2ccccc12)c1cccc([N+](=O)[O-])c1 | – | inactive: 9.45%
Cc1ccc(NC(=O)C2CCCN(c3ncccn3)C2)cc1F (stereo not given) | active: 16.4 µM | –
CC1CC(C)CN(S(=O)(=O)N2CCC(C(=O)NCCC3=CCCCC3)CC2)C1 (stereo not given) | inconclusive: 18.4 µM [cytotoxic, single point] | –
Nc1c(C(=O)Nc2ccccc2)c2nc3ccccc3nc2n1CCCN1CCOCC1 | inconclusive: 20.6 µM [cytotoxic, single point] | –
CC(C)CNC(=O)c1cc2nc(C3CC3)cc(C(F)(F)F)n2n1 | inconclusive: 10.3 µM [cytotoxic, partial curve] | –
COC(=O)C1=C(C)NC2=C(C(=O)CC(C)(C)C2)C1c1cn(Cc2ccc(Br)cc2)nc1-c1ccccc1 (stereo not given) | inconclusive: 11.2 µM [cytotoxic, single point] | –
C[C@@H]1CN([C@@H](C)CO)C(=O)CCCn2nncc2CO[C@H]1CN(C)Cc1cccc(O)c1 | inconclusive: 2.31 µM [rising, full curve, poor fit] | –
